Measurements reported in paper PMC3359979.
These are yes or no findings as the source states them, for the method shown. Some entries that bind do so weakly or less than the wild type.

Sequences of proteins named here, by UniProt entry; tags and fusion partners are left off. A change or cut given only in a name is not applied to a line headed by its entry. Residues count along the entry.
UniProt P11978: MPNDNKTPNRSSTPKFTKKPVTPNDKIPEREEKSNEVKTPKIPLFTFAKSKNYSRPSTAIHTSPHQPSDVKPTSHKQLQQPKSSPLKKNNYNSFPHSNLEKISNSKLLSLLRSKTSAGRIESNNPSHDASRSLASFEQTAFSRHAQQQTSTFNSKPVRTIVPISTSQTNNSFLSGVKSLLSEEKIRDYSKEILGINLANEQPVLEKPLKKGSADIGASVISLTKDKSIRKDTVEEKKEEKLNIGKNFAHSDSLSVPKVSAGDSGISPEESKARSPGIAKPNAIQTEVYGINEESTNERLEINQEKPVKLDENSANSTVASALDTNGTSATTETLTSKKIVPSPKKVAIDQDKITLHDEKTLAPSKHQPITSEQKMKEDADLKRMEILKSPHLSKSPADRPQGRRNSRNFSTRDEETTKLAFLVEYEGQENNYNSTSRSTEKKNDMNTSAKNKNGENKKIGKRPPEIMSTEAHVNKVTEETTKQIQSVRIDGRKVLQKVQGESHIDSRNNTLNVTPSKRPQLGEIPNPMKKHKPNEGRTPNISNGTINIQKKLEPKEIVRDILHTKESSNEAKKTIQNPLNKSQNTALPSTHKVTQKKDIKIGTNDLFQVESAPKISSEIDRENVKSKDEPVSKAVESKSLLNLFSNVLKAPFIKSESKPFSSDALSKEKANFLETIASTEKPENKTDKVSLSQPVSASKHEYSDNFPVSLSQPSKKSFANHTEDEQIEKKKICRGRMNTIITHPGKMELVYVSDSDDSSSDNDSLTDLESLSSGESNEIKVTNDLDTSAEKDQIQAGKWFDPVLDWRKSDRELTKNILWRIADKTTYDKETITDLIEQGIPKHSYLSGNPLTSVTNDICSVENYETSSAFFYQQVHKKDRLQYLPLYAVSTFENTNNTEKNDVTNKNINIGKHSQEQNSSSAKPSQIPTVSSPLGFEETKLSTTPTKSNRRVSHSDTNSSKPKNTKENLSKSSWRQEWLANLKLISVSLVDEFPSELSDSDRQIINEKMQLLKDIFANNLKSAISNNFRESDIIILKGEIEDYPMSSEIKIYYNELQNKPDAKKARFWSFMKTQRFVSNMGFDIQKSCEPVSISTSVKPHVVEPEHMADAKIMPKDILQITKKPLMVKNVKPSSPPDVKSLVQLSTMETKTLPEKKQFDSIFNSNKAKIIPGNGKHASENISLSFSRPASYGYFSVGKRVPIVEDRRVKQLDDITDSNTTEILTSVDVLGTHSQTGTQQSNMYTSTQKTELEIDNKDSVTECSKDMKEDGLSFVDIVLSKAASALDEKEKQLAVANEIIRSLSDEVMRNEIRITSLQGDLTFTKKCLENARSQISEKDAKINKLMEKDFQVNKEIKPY
Sir4C (Sir4 C-terminal domain, residues 747-1358): residues 747-1358 of P11978
UniProt P06700: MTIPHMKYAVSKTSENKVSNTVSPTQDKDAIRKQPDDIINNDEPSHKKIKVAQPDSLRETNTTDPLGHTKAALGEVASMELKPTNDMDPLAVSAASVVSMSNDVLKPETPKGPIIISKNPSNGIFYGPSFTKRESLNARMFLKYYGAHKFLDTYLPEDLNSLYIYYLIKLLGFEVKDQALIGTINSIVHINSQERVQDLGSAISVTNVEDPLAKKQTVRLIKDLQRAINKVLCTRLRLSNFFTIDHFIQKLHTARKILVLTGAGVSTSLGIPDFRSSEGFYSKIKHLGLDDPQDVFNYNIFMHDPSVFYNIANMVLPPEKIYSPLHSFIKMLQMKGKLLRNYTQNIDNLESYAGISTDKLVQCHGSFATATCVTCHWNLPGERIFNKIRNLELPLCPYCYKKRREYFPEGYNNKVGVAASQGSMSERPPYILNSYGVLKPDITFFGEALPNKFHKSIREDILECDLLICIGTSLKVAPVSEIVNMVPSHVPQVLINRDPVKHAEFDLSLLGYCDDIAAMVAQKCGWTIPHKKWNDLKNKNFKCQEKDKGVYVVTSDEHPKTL
UniProt P06701: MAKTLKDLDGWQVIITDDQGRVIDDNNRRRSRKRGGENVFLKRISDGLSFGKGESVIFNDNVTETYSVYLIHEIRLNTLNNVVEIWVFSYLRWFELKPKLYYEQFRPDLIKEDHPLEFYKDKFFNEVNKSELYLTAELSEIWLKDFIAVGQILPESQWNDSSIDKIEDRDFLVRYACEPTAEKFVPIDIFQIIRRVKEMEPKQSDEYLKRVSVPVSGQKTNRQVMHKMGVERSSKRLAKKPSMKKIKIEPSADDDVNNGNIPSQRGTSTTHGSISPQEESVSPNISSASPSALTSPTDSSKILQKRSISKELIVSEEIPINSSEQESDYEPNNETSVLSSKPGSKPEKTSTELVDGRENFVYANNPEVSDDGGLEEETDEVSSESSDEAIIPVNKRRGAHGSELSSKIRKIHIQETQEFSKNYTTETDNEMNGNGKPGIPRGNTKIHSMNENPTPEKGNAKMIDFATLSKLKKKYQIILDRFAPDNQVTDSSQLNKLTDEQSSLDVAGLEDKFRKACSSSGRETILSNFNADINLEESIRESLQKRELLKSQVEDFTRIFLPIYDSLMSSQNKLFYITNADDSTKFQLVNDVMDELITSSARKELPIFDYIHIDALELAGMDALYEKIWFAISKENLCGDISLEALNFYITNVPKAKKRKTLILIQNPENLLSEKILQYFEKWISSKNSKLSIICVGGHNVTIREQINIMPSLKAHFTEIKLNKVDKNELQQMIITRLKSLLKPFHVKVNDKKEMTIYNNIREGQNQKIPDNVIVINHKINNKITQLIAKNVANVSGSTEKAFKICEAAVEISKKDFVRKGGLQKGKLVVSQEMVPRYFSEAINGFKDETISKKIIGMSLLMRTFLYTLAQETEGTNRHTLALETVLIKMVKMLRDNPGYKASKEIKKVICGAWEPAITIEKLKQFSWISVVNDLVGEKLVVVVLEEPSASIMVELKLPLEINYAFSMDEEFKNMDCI

Tests used:
[1] = molecular target: Sir4C (Sir4 C-terminal domain, residues 747-1358) (S. cerevisiae) (UniProt P11978); experiment: co-sedimentation; glycerol density gradient sedimentation of the purified complex: 200 ul calmodulin-column eluate on a 4 ml 5-25% glycerol gradient, 10 mM TEA pH8, 150 mM sodium chloride, 0.01% Tween-20, 18 h at 4°C; fractions on SDS-PAGE, SyproRuby; both purified
[2] = molecular target: Sir4 (full-length) (S. cerevisiae) (UniProt P11978); experiment: as above
[3] = molecular target: Sir4C (Sir4 C-terminal domain, residues 747-1358) (S. cerevisiae) (UniProt P11978); experiment: co-purification of co-expressed proteins; Sir proteins co-expressed in baculovirus-infected insect sf21 cells and purified together (calmodulin column among the steps); SDS-PAGE, Coomassie
[4] = molecular target: Sir4 (full-length) (S. cerevisiae) (UniProt P11978); experiment: as above
[5] = molecular target: T1, Yku80, two-hybrid bait (S. cerevisiae) (UniProt Q04437); experiment: two-hybrid; yeast two-hybrid in strain GA181; Sir4N, Sir4N^GG or Sir4N^DD as prey; Yku80, Sir1 or Sif2 as bait; beta-galactosidase read-out
T1 sequence: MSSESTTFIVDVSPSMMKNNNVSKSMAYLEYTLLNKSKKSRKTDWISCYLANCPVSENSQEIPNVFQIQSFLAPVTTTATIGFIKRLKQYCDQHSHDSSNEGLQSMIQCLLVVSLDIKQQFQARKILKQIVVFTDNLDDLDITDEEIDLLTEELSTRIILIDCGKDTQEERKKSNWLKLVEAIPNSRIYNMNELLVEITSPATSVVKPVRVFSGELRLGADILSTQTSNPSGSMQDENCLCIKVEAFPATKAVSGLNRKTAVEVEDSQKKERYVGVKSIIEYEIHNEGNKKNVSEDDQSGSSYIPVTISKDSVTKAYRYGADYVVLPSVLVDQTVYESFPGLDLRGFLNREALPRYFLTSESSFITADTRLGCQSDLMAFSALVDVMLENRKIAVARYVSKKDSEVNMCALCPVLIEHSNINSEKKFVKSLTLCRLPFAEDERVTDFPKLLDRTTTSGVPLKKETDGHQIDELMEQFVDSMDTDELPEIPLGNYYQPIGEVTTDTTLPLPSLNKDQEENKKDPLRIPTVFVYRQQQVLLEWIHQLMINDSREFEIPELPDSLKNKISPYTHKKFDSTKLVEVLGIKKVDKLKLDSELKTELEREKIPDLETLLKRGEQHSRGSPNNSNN

[6] = molecular target: T2, Sif2, two-hybrid bait (S. cerevisiae) (UniProt P38262); experiment: as above
T2 sequence: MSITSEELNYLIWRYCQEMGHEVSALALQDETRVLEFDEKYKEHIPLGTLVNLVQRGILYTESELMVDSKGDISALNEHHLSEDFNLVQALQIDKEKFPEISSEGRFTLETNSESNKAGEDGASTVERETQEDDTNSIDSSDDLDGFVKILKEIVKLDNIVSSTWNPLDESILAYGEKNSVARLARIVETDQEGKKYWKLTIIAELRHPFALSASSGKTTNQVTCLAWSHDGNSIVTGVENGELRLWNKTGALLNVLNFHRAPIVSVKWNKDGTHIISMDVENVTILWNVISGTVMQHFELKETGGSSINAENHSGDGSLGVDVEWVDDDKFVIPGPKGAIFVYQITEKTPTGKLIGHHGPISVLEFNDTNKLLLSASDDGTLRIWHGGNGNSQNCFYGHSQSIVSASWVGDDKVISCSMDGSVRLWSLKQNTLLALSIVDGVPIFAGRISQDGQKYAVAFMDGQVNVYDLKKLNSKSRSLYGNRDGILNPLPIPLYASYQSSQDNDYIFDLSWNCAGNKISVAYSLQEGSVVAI

[7] = molecular target: T3, Sir1, two-hybrid bait (S. cerevisiae) (UniProt P21691); experiment: as above
T3 sequence: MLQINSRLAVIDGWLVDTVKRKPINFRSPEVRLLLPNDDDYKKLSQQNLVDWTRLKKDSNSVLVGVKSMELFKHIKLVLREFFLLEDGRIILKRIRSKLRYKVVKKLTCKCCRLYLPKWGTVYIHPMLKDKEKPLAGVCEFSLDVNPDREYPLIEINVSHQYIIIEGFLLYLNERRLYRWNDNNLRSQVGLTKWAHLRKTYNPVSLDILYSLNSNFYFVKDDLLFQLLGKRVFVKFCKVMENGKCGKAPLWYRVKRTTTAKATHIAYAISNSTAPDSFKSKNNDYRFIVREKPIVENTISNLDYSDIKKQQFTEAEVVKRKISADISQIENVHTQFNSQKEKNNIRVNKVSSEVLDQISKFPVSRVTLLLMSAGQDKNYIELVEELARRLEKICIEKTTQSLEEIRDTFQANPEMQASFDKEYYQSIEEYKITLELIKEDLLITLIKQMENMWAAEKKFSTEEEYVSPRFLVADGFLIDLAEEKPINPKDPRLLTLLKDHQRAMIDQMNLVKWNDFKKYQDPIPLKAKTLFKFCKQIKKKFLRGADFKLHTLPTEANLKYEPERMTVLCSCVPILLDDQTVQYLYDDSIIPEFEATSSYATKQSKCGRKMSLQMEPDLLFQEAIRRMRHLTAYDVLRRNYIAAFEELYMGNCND

Measured: binding

Sir2 (from UniProt P06700 1-562) (enzyme)
binds: [1] | [2] | [3] | [4]

Sir3 (from UniProt P06701 1-978)
binds: [1] | [2] | [3] | [4]

Sir4N (Sir4 N-terminal domain, residues 1-270), two-hybrid prey (from UniProt P11978 1-270) (domain or fragment)
binds: [5] | [6] | [7]

Sir4N^DD (Sir4N S63D S84D), two-hybrid prey (from UniProt P11978 1-270) (domain or fragment)
binds: [5] | [6] | [7]

Sir4N^GG (Sir4N S63G S84G), two-hybrid prey (from UniProt P11978 1-270) (domain or fragment)
binds: [5] | [6] | [7]
